Results as given in PubChem BioAssay AID651595 (National Center for Advancing Translational Sciences (NCATS), 2012).
Screen size: about 1,100 compounds; fewer than 10 were called active. Inconclusive results (about 6%) are left out. Calls follow the shape of the dose curve; as a rule, active = well fitted cell-killing curve with a large enough effect; inconclusive = small, poorly fitted or top-dose-only effect; inactive = flat fitted curve, though single readings scatter. The list shows a part of the results.

Assay: qHTS of Nrf2 Activators: Hit Validation in Cytotox Assay;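 also: compound exposure lasted 24 hours before the ATP readout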; as to activity change, negative = cytotoxicity: 0% is about no effect
Conditions: Cell viability counter-screen for Nrf2 activator hits; series mostly up to 46.1 µM; activity change, negative = cytotoxicity: at the top concentration
Excerpt: Many diseases have some form of oxidative stress injury and ties to inflammation, causing a host of problems for the patient. The antioxidant response element (ARE) plays an important role in alleviating the harmful effects of oxidative stress. The antioxidant response element (ARE) is a transcriptional regulatory element involved in the activation of genes coding for a number of antioxidant proteins and detoxifying enzymes. These enzymes work in concert to protect tissues from oxidative insults and chemical toxicities in human hepatocytes and immune cells. The protective effects of ARE activation are primarily triggered through Nrf2 (NF-E2-related factor) binding to and activating AREs. It is known that Nrf2 controls the production of over 250 antioxidant and detoxification proteins (Hu et al., 2006), thereby protecting tissues by increasing cellular antioxidant content and suppressing inflammatory signaling pathways. The transcription factor Nrf2 is a central link between oxidative chemicals, such as phenolic antioxidants and electrophilic compounds, and the activation of ARE. Nrf2 levels are constitutively low as a consequence of its interaction with Keap1, which targets its degradation (Zipper and Mulcahy, 2002). Electrophiles react with key cysteine residues in Keap1, releasing Nrf2 and allowing its translocation to the nucleus. Once within the nucleus, Nrf2 complexes with coactivators such as p300, and binds to the AREs to induce gene transcription of cytoprotective enzymes, resulting in the prevention of toxicity. Activation of Nrf2 protects tissues by increasing cellular antioxidant content and suppressing inflammatory signaling pathways. Identifying novel and potent Nrf2 activators by using the AREc32 cell line to detect ARE activation by small molecules will lead to the identification and development of probes to study protective pathways in multiple tissues. These specific probes are essential to study the ARE pathway, and eventually to determine whether this pathway does activate genes that could protect against a host of diseases, including cardiovascular diseases, obesity, diabetes, Alzheimer's, and Parkinson's disease.
This project's aim is to identify novel and potent Nrf2 activators by using the AREc32 cell line to detect ARE activation by small molecules, which will lead to the identification and development of probes to study the ARE pathway. Cytotoxic compounds are flagged as active, and inactivity is desired in this assay.
NIH Chemical Genomics Center [NCGC]
NIH Molecular Libraries Probe Centers Network [MLPCN]
Assay Submitter (PI): Curtis Klaassen, University of Kansas Medical Center
Cell viability after compound treatment was measured using a luciferase-coupled ATP quantitation assay (CellTiter-Glo, Promega) in AREc32_fluc cells. The change of intracellular ATP content indicates the number of metabolically competent cells after compound treatment. AREc32_fluc cells were harvested from T225 flask and resuspended in phenol red free OPTI-MEM medium with 5% FBS. Then 5 microL of 200,000 cells/ml resuspended cells was dispensed into each well of white, solid bottom, 1536-well tissue culture-treated plates using a Multidrop Combi dispenser. After overnight culture at 37 degrees C with 5% CO2, a total of 23 nL of compounds at 7 selected concentrations from the cherry pick or positive control (40 uM stock of CDDO-IM and 2 mM of tBHQ) in DMSO was transferred to each well of the assay plate using a pintool (Kalypsys, San Diego, CA), and the plates were further incubated at 37 degrees C with 5% CO2 for 24 hours. After that, 4 microL of CellTilter-GloTM luminescent substrate mix (Promega) was added to each well. The plate was incubated at room temperature for 30 minutes. The plates were measured on a ViewLux plate reader (PerkinElmer) with clear filter.
Potency is read from the fitted curve at half-maximal effect.

Question: Which “activity change, negative = cytotoxicity” value does the source give for `S=c1nc(-c2ccccc2)[nH]c2ccc(Br)cc12` here?
Answer: inactive: 8.86%

Question: For `CCn1c(/C=C/c2ccccc2[N+](=O)[O-])nc2ccccc2c1=O`, which “activity change, negative = cytotoxicity” value is on record?
Answer: inactive: -0.354%

Question: For `O=C(N/N=C/c1cn[nH]c1-c1ccccc1)c1ccco1`, which “activity change, negative = cytotoxicity” value is on record?
Answer: inactive: 11.8%

Question: For `NS(=O)(=O)c1ccc(Sc2nc3ccccc3s2)c([N+](=O)[O-])c1`, which “activity change, negative = cytotoxicity” value is on record?
Answer: inactive: -13.7%

Question: With `O=C(/C=C/c1ccco1)Nc1cccc2cccnc12` as the compound, how does the “activity change, negative = cytotoxicity” value read?
Answer: inactive: 2.07%

Question: For `Cn1ccsc1=NC(=O)c1ccc([N+](=O)[O-])o1`, which “activity change, negative = cytotoxicity” value is on record?
Answer: inactive: -23.3%

Question: Which “activity change, negative = cytotoxicity” value does the source give for `Nc1c(C(=O)Nc2ccccc2Br)sc2nc(-c3cccs3)ccc12` here?
Answer: inactive: -2.28%

Question: Which “activity change, negative = cytotoxicity” value does the source give for `c1coc(-c2cnc3ccccc3n2)c1` here?
Answer: inactive: 8.74%

Question: For `COC(=O)c1sccc1NC(=O)c1cc(C)on1`, which “activity change, negative = cytotoxicity” value is on record?
Answer: inactive: 8.04%

Question: With `Cc1ccc([N+](=O)[O-])c(OCc2ncc(Cl)n2C)c1` as the compound, how does the “activity change, negative = cytotoxicity” value read?
Answer: inactive: -2.21%

Question: Which “activity change, negative = cytotoxicity” value does the source give for `O=C(CSc1ccc(-c2ccco2)nn1)N1CCCCC1` here?
Answer: inactive: -5.05%

Question: For `CCOC(=O)C(=Cc1ccccc1OC)C(=O)OCC`, which “activity change, negative = cytotoxicity” value is on record?
Answer: inactive: -0.294%

Question: Which “activity change, negative = cytotoxicity” value does the source give for `COc1nc2ccc(C)cc2cc1-c1noc(-c2ccccc2)n1` here?
Answer: inactive: 5.62%

Question: With `O=C(Nc1ncc2c(n1)-c1ccccc1CC2)c1cccs1` as the compound, how does the “activity change, negative = cytotoxicity” value read?
Answer: inactive: -1.4%

Question: With `O=c1nc2c(O)cccn2c2c1c(=O)[nH]c1ccccc12` as the compound, how does the “activity change, negative = cytotoxicity” value read?
Answer: inactive: 11.3%

Question: With `Cc1cc(-c2sccc2Br)nc(-n2cccc2)n1` as the compound, how does the “activity change, negative = cytotoxicity” value read?
Answer: inactive: 6.63%

Question: Which “activity change, negative = cytotoxicity” value does the source give for `O=C1N/C(=N\N=C\c2ccco2)SC1Cc1ccccc1[N+](=O)[O-]` (stereo not given) here?
Answer: inactive: 2.03%

Question: Which “activity change, negative = cytotoxicity” value does the source give for `O=C(CSc1ccc(-c2ccco2)nn1)N1CCCCCC1` here?
Answer: inactive: 0.45%

Question: With `COCCNc1ccc(-c2nc(-c3ccco3)no2)cc1[N+](=O)[O-]` as the compound, how does the “activity change, negative = cytotoxicity” value read?
Answer: inactive: 2.29%

Question: For `Cc1ccc(-c2nc(C=Nc3ccc(O)cc3)c(O)o2)cc1`, which “activity change, negative = cytotoxicity” value is on record?
Answer: inactive: 7.56%

Question: With `O=C1C(=C2CCc3ccccc32)Cc2ccccc21` as the compound, how does the “activity change, negative = cytotoxicity” value read?
Answer: inactive: 0.97%

Question: Which “activity change, negative = cytotoxicity” value does the source give for `CNc1ccc(-c2nc(-c3ccco3)no2)cc1[N+](=O)[O-]` here?
Answer: inactive: 12.3%

Question: For `Nc1c(C(=O)c2ccc(Br)s2)oc2ccccc12`, which “activity change, negative = cytotoxicity” value is on record?
Answer: inactive: 1.91%

Question: For `Cc1ccc(S(=O)(=O)c2cc3ccccc3oc2=O)cc1`, which “activity change, negative = cytotoxicity” value is on record?
Answer: inactive: 10.2%

Question: For `NC(=O)c1nc(Nc2ccccc2)sc1NC(=O)c1ccccc1Br`, which “activity change, negative = cytotoxicity” value is on record?
Answer: inactive: 3.79%

Question: Which “activity change, negative = cytotoxicity” value does the source give for `C=CCSc1nccc(-c2cc(Cl)sc2Cl)n1` here?
Answer: inactive: -5.4%

Question: For `Brc1ccc(-c2nnc(-c3cccnc3)c3conc23)cc1`, which “activity change, negative = cytotoxicity” value is on record?
Answer: inactive: -1.23%

Question: With `c1coc(CSc2ncnc3c2oc2ccccc23)c1` as the compound, how does the “activity change, negative = cytotoxicity” value read?
Answer: inactive: -0.0884%

Question: For `Cc1cc(C)n2nc(-c3ccc(F)cc3)cc2n1`, which “activity change, negative = cytotoxicity” value is on record?
Answer: inactive: 3.57%

Question: Which “activity change, negative = cytotoxicity” value does the source give for `O=C(C=Cc1ccco1)c1ccc2ccccc2c1` here?
Answer: inactive: -2.17%

Question: With `Fc1ccc(-c2nc3c4ccccc4ccn3c2Cc2ccccc2C(F)(F)F)cc1` as the compound, how does the “activity change, negative = cytotoxicity” value read?
Answer: inactive: -6.37%

Question: Which “activity change, negative = cytotoxicity” value does the source give for `CN1c2ccsc2/C(=N/Nc2ccccc2)CS1(=O)=O` here?
Answer: inactive: -1.51%

Question: With `CC(=O)OC1(C(C)=O)CCC2C3CC(C(F)(F)F)C4=CC(=O)CCC4(C)C3CCC21C` (stereo not given) as the compound, how does the “activity change, negative = cytotoxicity” value read?
Answer: inactive: 2.22%

Question: For `COC(=O)c1scc(C)c1NC(=O)c1ccc(Cl)cc1`, which “activity change, negative = cytotoxicity” value is on record?
Answer: inactive: 1.37%

Question: With `O=C(Oc1ccccc1/C=C\C(=O)c1cc2ccccc2o1)c1ccccc1` as the compound, how does the “activity change, negative = cytotoxicity” value read?
Answer: inactive: 5%

Question: With `COc1ccc(Cl)cc1NC(=O)c1cc(C)no1` as the compound, how does the “activity change, negative = cytotoxicity” value read?
Answer: inactive: 10.2%

Question: With `COc1ccc(OC)c(C(=O)Nc2c(O)ccc3ccccc23)c1` as the compound, how does the “activity change, negative = cytotoxicity” value read?
Answer: inactive: 3.44%

Question: With `CCSc1nc2ccccc2n1C(=O)/C=C\c1ccc(OC)c(OC)c1` as the compound, how does the “activity change, negative = cytotoxicity” value read?
Answer: inactive: 21%

Question: For `O=C(NC(=S)Nc1ccc(Cl)cn1)c1cccs1`, which “activity change, negative = cytotoxicity” value is on record?
Answer: inactive: 0.914%

Question: For `COc1ccc(Cl)cc1NC(=O)c1ccco1`, which “activity change, negative = cytotoxicity” value is on record?
Answer: inactive: 10.9%

Question: With `Cc1ccc(N=C/C(C(=O)C(F)(F)F)=C(\O)c2ccco2)cc1Cl` as the compound, how does the “activity change, negative = cytotoxicity” value read?
Answer: inactive: -0.288%

Question: For `Cc1ccccc1-c1noc(-c2ccccc2C(=O)NCc2ccco2)n1`, which “activity change, negative = cytotoxicity” value is on record?
Answer: inactive: -13.3%

Question: Which “activity change, negative = cytotoxicity” value does the source give for `O=C1NC(=Nc2ccc(O)cc2)S/C1=C/c1ccco1` here?
Answer: inactive: -0.492%

Question: Which “activity change, negative = cytotoxicity” value does the source give for `COc1ccc(NC(=O)Nc2nnc(-c3ccccc3F)s2)cc1` here?
Answer: inactive: -0.609%

Question: Which “activity change, negative = cytotoxicity” value does the source give for `CNC(=O)C1CCN(S(=O)(=O)c2c(C)noc2/C=C/c2ccccc2F)CC1` here?
Answer: inactive: 6.61%

Question: With `CCn1c(/C=C/c2ccccc2F)nc2ccccc2c1=O` as the compound, how does the “activity change, negative = cytotoxicity” value read?
Answer: inactive: -2.4%

Question: For `Fc1cccc(Nc2cc(-n3cccn3)ncn2)c1`, which “activity change, negative = cytotoxicity” value is on record?
Answer: inactive: -0.476%

Question: For `Fc1ccc(Nc2nc3ccccc3n3cnnc23)c(F)c1`, which “activity change, negative = cytotoxicity” value is on record?
Answer: inactive: -2.38%

Question: For `COc1ccccc1-c1nnc(NC(C)=O)s1`, which “activity change, negative = cytotoxicity” value is on record?
Answer: inactive: -1.66%

Question: With `CSc1ccc(C2NN=C(c3ccccc3)S2)cc1` (stereo not given) as the compound, how does the “activity change, negative = cytotoxicity” value read?
Answer: inactive: -0.741%

Question: For `Cc1cc(C(=O)Nc2cc(Br)ccc2O)on1`, which “activity change, negative = cytotoxicity” value is on record?
Answer: inactive: 11.2%

Question: Which “activity change, negative = cytotoxicity” value does the source give for `COC(=O)c1cc2nc(-c3ccccc3)cc(C(F)(F)F)n2n1` here?
Answer: inactive: 0.611%

Question: With `O=[N+]([O-])c1ccccc1C=NNc1ccccc1` as the compound, how does the “activity change, negative = cytotoxicity” value read?
Answer: inactive: -0.726%

Question: Which “activity change, negative = cytotoxicity” value does the source give for `CCN(C(=O)c1ccco1)c1nc(CC(=O)Nc2ccc(Cl)cc2)cs1` here?
Answer: inactive: -1.58%

Question: Which “activity change, negative = cytotoxicity” value does the source give for `CC(C)C(=O)Nc1nnc(-c2ccco2)s1` here?
Answer: inactive: 6.12%

Question: With `O=C(/C=C/c1ccco1)Nc1cccc(S(=O)(=O)N2CCOCC2)c1` as the compound, how does the “activity change, negative = cytotoxicity” value read?
Answer: inactive: 6.93%

Question: For `c1ccc2nc3c(ccc4ccccc43)cc2c1`, which “activity change, negative = cytotoxicity” value is on record?
Answer: inactive: 3.28%

Question: Which Potency does the source give for `O=C1C(Cl)=C(Nc2ccccc2)C(=O)c2ccccc21` here?
Answer: active: 16.4 µM

Question: For `CC(C)c1ccc(NC(=O)c2cc(Br)ccc2Br)cc1`, which “activity change, negative = cytotoxicity” value is on record?
Answer: inactive: 0.0039%

Question: For `COC(=O)c1ccsc1NC(=O)CSc1nnnn1Cc1ccccc1`, which “activity change, negative = cytotoxicity” value is on record?
Answer: inactive: 1.32%
